Taken from: PubChem BioAssay AID1224828 (NIAID, 2016)
Aim: 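Knock-downs that increase or decrease LPS-induced p65 nuclear translocation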 (primary screen). Cell system: mouse RAW264.7 G9 macrophage reporter cells (GFP-p65, Tnf promoter-mCherry). Reagent: siRNA pool against mouse genes, 100 nM. Timing: 2 days siRNA transfection, then 40 min LPS before fixation. Challenge: LPS (Salmonella minnesota R595) at 10 ng/ml. Measured: 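Microscopy ratio of nuclear to perinuclear-ring GFP-p65 signal, scaled to the plate median; gene score is the average of two replicate robust z-scores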. Direction: p65 translocation robust z-score: higher = more nuclear NF-kappaB p65 after LPS than the plate median; nuclear/cytoplasmic p65 ratio: higher = more nuclear NF-kappaB p65. Rule for the call: 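Active if robust z is above 3.3 (negative regulators) or below -1.56, the Tlr4 control median (positive regulators); activity score 50 or more; control wells not called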. Meaning of the calls: active = hit (p65 shift raised or lowered); inactive = no clear change.
The deposit covers about 17,000 reagents; shown is a part drawn at random. 762 of them (4.5%) were called active. 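Active calls include both raised and lowered p65 entry, mostly lowered; wells with fewer than 50 cells lack a z-score.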 Raw values vary from plate to plate and are shown uncorrected. A number with no mark means an inactive call. Reagents against one gene are numbered here. Some reagents were tested in more than one well and are listed for each.

Gene	reagent	p65 translocation robust z-score	nuclear/cytoplasmic p65 ratio, rep 1	nuclear/cytoplasmic p65 ratio, rep 2	low cell count flag
Kctd20 (GeneID 66989)	1	0.12	1.42	1.51	enough cells to score
Ids (GeneID 15931)	1	0.09	1.43	1.4	enough cells to score
Zfp825 (GeneID 235956)	1	-1.78 (active)	1.27	1.59	enough cells to score
Mei4 (GeneID 75033)	1		1.16	1.16	fewer than 50 cells per well; well left out of scoring
Bcr (GeneID 110279)	1		1.52	1.34	fewer than 50 cells per well; well left out of scoring
Ppp1r3a (GeneID 140491)	1	-0.46	1.51	1.28	enough cells to score
Aqp4 (GeneID 11829)	1	-1.17	1.41	1.47	enough cells to score
Kif1a (GeneID 16560)	1	-1.34	1.28	1.22	enough cells to score
Appl1 (GeneID 72993)	1		1.83	1.35	fewer than 50 cells per well; well left out of scoring
Appl1 (GeneID 72993)	1		1.23	1.13	fewer than 50 cells per well; well left out of scoring
Rbbp9 (GeneID 26450)	1	0.42	1.65	1.51	enough cells to score
Zfp764l1 (GeneID 101604)	1		1.04	1.22	fewer than 50 cells per well; well left out of scoring
Vopp1 (GeneID 232023)	1	-1.12	1.31	1.48	enough cells to score
4933440M02Rik (GeneID 71208)	1		1.37	1.62	fewer than 50 cells per well; well left out of scoring
Gdpgp1 (GeneID 269952)	1	0.4	1.57	1.66	enough cells to score
Gpr21 (GeneID 338346)	1	1.56	1.63	1.59	enough cells to score
Acan (GeneID 11595)	1	-0.52	1.54	1.55	enough cells to score
Coq10b (GeneID 67876)	1	0.66	1.59	1.51	enough cells to score
Tfe3 (GeneID 209446)	1	0.58	1.63	1.57	enough cells to score
Kif4 (GeneID 16571)	1	-0.34	1.49	1.28	enough cells to score
Aldh6a1 (GeneID 104776)	1	0.17	1.79	1.51	enough cells to score
Rasgrp2 (GeneID 19395)	1	0.33	1.51	1.61	enough cells to score
Or51r1 (GeneID 259108)	1	-0.16	1.25	1.25	enough cells to score
Ikbip (GeneID 67454)	1	-0.37	1.31	1.41	enough cells to score
Ikbip (GeneID 67454)	2	0.9	1.57	1.48	enough cells to score
N4bp2l1 (GeneID 100637)	1	0.11	1.77	1.5	enough cells to score
Wnt4 (GeneID 22417)	1	-0.65	1.37	1.56	enough cells to score
C130026L21Rik (GeneID 330164)	1	0.33	1.36	1.57	enough cells to score
Sub1 (GeneID 20024)	1	0.53	1.49	1.69	enough cells to score
Ttyh2 (GeneID 117160)	1	0.1	1.4	1.14	enough cells to score
Ptprh (GeneID 545902)	1	0.25	1.56	1.54	enough cells to score
Rapgef5 (GeneID 217944)	1	0.26	1.58	1.53	enough cells to score
Fam221b (GeneID 242408)	1	-1.99 (active)	1.04	1.05	enough cells to score
Actr6 (GeneID 67019)	1	0.73	1.78	1.73	enough cells to score
Bicdl2 (GeneID 212733)	1	4.19 (active)	1.92	2.19	enough cells to score
Bcl6b (GeneID 12029)	1	-0.01	1.64	1.59	enough cells to score
Leprot (GeneID 230514)	1	-0.81	1.35	1.3	enough cells to score
Col1a1 (GeneID 12842)	1	-0.79	1.34	1.29	enough cells to score
Abhd10 (GeneID 213012)	1	-0.14	1.48	1.59	enough cells to score
Bhlhe22 (GeneID 59058)	1	-2.58 (active)	1.03	1.16	enough cells to score

Hits, among the entries above:
Gene	reagent	p65 translocation robust z-score	nuclear/cytoplasmic p65 ratio, rep 1	nuclear/cytoplasmic p65 ratio, rep 2	low cell count flag
Zfp825 (GeneID 235956)	1	-1.78 (active)	1.27	1.59	enough cells to score
Fam221b (GeneID 242408)	1	-1.99 (active)	1.04	1.05	enough cells to score
Bicdl2 (GeneID 212733)	1	4.19 (active)	1.92	2.19	enough cells to score
Bhlhe22 (GeneID 59058)	1	-2.58 (active)	1.03	1.16	enough cells to score
